Reference: PubChem BioAssay AID504764 (Drosophila RNAi Screening Center, 2011)
The deposit covers about 22,000 reagents; shown is a random part of those with a known target gene and a result. Over the whole deposit, 403 (1.9%) are marked active. 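Unnormalised raw counts per well; ratio z-scores behind the hit calls and whether each hit raises or lowers signal are not deposited.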 A plus sign joins genes that one reagent is predicted to hit. Reagent sequences are not shown. Not given: the amount of reagent.

- Aim: 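Genes whose knock-down alters Notch-dependent transcription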 (primary screen)
- Cell system: Drosophila Kc167 cells
- Reagent: long dsRNA against Drosophila genes
- Timing: about 5 days (4 days dsRNA, then 24 h after transfection)
- Challenge: transfection of constitutively active membrane-tethered Notch lacking the extracellular domain, read 24 h later
- Detection: 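Firefly luciferase from an E(spl)m3 reporter with active Notch, plus control-promoter and uninduced reporter wells for normalisation; unnormalised counts, duplicate wells a and b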
- Scale: induced reporter light, run 1, well a and induced reporter light, run 1, well b: higher = more light from the Notch target reporter with active Notch; control promoter light, run 1, well a and control promoter light, run 1, well b: higher = more light from the viral control promoter (cell number, transfection, viability); uninduced reporter light, run 1, well a: higher = more light from the Notch target reporter without active Notch
- Hit rule: 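Wells with low control signal or poorly matching duplicates excluded; duplicates averaged; per source plate, z beyond ±2 for induced/control log2 ratio or beyond ±1.8 for induced/uninduced marks a hit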
- Meaning of the calls: active = modifier hit (raised or lowered Notch signal); inactive = not a hit

no.	Gene	dsRNA	induced reporter light, run 1, well a	induced reporter light, run 1, well b	control promoter light, run 1, well a	control promoter light, run 1, well b	uninduced reporter light, run 1, well a	activity call
1	Polr3C	DRSC14490	88425	93690	73740	69350	9435	inactive
2	eya	DRSC03510	2.34e5	2.06e5	1.65e5	1.81e5	17660	inactive
3	lncRNA:CR32661	DRSC19794	1.39e5	1.56e5	2.46e5	2.70e5	10280	inactive
4	CG5466	DRSC15808	10635	9532	12520	10550	2220	inactive
5	Ugt302C1	DRSC15353	1.06e5	1.35e5	80455	79340	9045	inactive
6	CG7342	DRSC16230	1.56e5	1.80e5	2.17e5	2.10e5	15260	inactive
7	slam	DRSC03240	1.84e5	1.64e5	2.21e5	2.23e5	9795	inactive
8	CG15425	DRSC00440	1.92e5	1.29e5	2.19e5	2.12e5	10238	inactive
9	CG17375	DRSC02614	67360	63590	58505	53295	4328	inactive
10	CG4281	DRSC18521	1.66e5	1.62e5	2.34e5	2.47e5	13165	inactive
11	f-cup	DRSC14139	1.18e5	1.22e5	49580	46070	9790	inactive
12	CG17764	DRSC18135	47895	54980	69700	68135	7890	inactive
13	or	DRSC04329	2.04e5	1.87e5	1.83e5	1.41e5	14325	inactive
14	DIP-kappa	DRSC01336	80705	77315	58640	49630	6110	inactive
15	DIP-kappa	DRSC01337	1.04e5	1.03e5	1.65e5	1.53e5	9790	inactive
16	ChLD3	DRSC02640	1.36e5	1.28e5	1.58e5	1.79e5	11290	inactive
17	CG12065	DRSC17798	2.10e5	1.77e5	2.08e5	2.00e5	12860	inactive
18	CG12065	DRSC17799	1.95e5	1.58e5	3.42e5	3.32e5	10825	inactive
19	CG32369	DRSC10042	1.38e5	1.20e5	1.73e5	1.37e5	19940	inactive
20	CG32369	DRSC10834	1.24e5	88500	70080	33480	9250	inactive
21	Mfap1	DRSC08154	48020	43620	65385	76120	2950	inactive
22	ifc	DRSC03549	1.48e5	1.54e5	1.57e5	1.53e5	16285	inactive
23	CG8405	DRSC05599	1.19e5	1.40e5	1.67e5	1.52e5	11465	inactive
24	CG8405	DRSC07166	89490	1.00e5	1.50e5	1.15e5	6505	inactive
25	Cpr67B	DRSC10373	1.40e5	1.18e5	90585	54545	11565	inactive
26	CG17239	DRSC00492	85775	1.27e5	95320	49395	8005	inactive
27	CG42512 + CG32573	DRSC19532	55360	40710	63835	64070	7605	inactive
28	CG42512 + CG32573	DRSC19906	1.30e5	1.17e5	1.07e5	75130	8875	inactive
29	Nf1	DRSC16758	2.22e5	1.87e5	2.69e5	3.24e5	16085	inactive
30	swa	DRSC18842	2.18e5	1.79e5	2.32e5	2.27e5	15675	inactive
31	Rnmt	DRSC03558	1.51e5	1.62e5	1.68e5	2.07e5	12590	inactive
32	Urod	DRSC07569	2.12e5	1.85e5	2.25e5	2.69e5	19732	inactive
33	TTLL3A	DRSC02143	1.35e5	1.21e5	1.92e5	1.63e5	9330	inactive
34	NC2beta	DRSC01895	2.16e5	2.38e5	1.89e5	1.94e5	16715	inactive
35	Arp3	DRSC09669	80115	83770	66545	30880	7045	inactive
36	bru1	DRSC01234	10025	10105	7432	5882	2735	inactive
37	bru1	DRSC01236	12665	13305	12205	11300	3870	inactive
38	bru1	DRSC01237	1.14e5	1.20e5	1.60e5	1.64e5	8615	inactive
39	bru1	DRSC01238	94510	1.25e5	1.25e5	1.04e5	7945	inactive
40	bru1	DRSC03485	1.86e5	1.49e5	1.15e5	1.28e5	15920	inactive
41	CG32485	DRSC22666						inactive
42	CR18275 + CG13373	DRSC17900	1.62e5	1.56e5	1.86e5	2.12e5	11480	inactive
43	Femcoat	DRSC18061	1.33e5	1.63e5	2.14e5	2.78e5	11045	inactive
44	CG42376 + cin	DRSC18752	58540	80250	70390	85620	5015	inactive
45	yellow-h	DRSC17141	97825	1.18e5	2.42e5	1.97e5	8220	inactive
46	Pask	DRSC04337	1.90e5	1.93e5	1.83e5	1.84e5	15785	inactive
47	HSPC300	DRSC22880						inactive
48	IntS14	DRSC00668	1.94e5	1.90e5	1.92e5	1.98e5	15990	inactive
49	pdm3	DRSC06076	2.31e5	2.29e5	2.73e5	2.85e5	19410	inactive
50	pdm3	DRSC06490	1.77e5	1.39e5	2.20e5	2.12e5	16990	inactive
51	pdm3	DRSC22326						inactive

Copied from the list.
or [DRSC04329], activity call = inactive
For “control promoter light, run 1, well a”, CG8405 [DRSC07166] shows 1.50e5
Result of CG15425 [DRSC00440] in “control promoter light, run 1, well b”: 2.12e5
Under “uninduced reporter light, run 1, well a”, ifc [DRSC03549] has 16285
bru1 [DRSC03485], uninduced reporter light, run 1, well a: 15920
